These results are taken from patent US20110091386A1 (GENE TECHNO SCIENCE, published 2011).

For the experiment, the target named is murine laminin (murine). Nature of the experiment: ELISA, protein coated at 5 ug/ml. Background: ELISA stands for enzyme-linked immunosorbent assay.

These are yes or no findings as the source states them, for the method shown.

B1: mouse anti-RGD monoclonal antibody 35B6 (FERM BP-10441) (antibody, mouse IgG1, V domains shown)
VH: QVQLQQPGTELVKPGASVKLSCKASGYTFTNYWMHWVKQRPGQGLEWIGNINPRNGDSNYNEKFRSKASLTVDKSSSTVYMQLSSLTSEDSAVYYCARGYFDVWGTGTTVTVSS
VL: DIKMTQSPSSMYASLGERVSITCKASQDINSYLSWFQQKSGKSPKTLIYRANRLVDGVPSRFSGSGSGQDFSLTISSLEYEDMGIYYCLQYDEFPFTFGSGTKLEIK
notes: Mouse IgG1 from hybridoma
As for B1, the binding result is listed as “no binding”.
